Assay in all cases: co-IP; SW480 cell extracts pre-cleared 2 h at 4°C with IgG and protein A+G agarose; EZH2, HDAC1, HDAC2 or Snail antibody overnight at 4°C; Western blot of the precipitates; also done after siHDAC1, siHDAC2 or TSA (HDAC inhibitor) treatment of the cells
In general terms: Immunoblotting shows a protein as a band on a membrane.

Protein sequences, listed by entry. Tags and fused reporters are not part of them.
UniProt Q13547: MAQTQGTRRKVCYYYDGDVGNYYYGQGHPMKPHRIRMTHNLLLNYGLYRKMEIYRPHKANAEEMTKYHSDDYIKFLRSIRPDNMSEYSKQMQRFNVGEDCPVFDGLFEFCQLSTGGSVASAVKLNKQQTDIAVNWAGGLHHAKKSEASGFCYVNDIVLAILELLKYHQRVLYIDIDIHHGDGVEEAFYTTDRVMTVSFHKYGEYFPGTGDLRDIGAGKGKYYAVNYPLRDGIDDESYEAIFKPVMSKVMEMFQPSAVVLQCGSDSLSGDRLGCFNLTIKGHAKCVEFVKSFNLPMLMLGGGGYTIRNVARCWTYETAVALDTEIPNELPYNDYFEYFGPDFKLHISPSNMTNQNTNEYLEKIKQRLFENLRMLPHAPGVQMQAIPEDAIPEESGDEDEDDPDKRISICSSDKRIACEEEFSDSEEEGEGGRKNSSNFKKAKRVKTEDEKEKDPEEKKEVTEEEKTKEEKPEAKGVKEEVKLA
UniProt Q92769: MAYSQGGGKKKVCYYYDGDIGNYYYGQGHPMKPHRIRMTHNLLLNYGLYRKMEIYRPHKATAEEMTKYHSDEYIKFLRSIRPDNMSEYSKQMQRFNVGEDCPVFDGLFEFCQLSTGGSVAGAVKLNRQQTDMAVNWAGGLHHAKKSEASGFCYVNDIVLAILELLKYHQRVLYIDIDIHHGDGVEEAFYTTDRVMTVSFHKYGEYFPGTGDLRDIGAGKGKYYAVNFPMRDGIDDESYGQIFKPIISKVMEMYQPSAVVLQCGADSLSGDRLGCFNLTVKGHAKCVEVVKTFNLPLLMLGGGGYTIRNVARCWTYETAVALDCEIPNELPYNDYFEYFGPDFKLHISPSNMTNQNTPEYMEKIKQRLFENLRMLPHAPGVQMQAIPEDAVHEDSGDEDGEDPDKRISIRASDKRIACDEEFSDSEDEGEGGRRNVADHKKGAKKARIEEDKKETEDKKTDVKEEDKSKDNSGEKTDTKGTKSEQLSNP
UniProt O95863: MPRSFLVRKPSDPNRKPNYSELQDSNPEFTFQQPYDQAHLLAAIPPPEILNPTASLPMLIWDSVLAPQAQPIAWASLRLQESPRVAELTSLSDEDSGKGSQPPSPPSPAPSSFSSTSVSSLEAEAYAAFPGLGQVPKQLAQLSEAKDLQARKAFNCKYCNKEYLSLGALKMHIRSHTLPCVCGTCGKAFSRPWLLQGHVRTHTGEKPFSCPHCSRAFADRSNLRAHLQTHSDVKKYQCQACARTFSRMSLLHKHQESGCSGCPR
UniProt Q15910: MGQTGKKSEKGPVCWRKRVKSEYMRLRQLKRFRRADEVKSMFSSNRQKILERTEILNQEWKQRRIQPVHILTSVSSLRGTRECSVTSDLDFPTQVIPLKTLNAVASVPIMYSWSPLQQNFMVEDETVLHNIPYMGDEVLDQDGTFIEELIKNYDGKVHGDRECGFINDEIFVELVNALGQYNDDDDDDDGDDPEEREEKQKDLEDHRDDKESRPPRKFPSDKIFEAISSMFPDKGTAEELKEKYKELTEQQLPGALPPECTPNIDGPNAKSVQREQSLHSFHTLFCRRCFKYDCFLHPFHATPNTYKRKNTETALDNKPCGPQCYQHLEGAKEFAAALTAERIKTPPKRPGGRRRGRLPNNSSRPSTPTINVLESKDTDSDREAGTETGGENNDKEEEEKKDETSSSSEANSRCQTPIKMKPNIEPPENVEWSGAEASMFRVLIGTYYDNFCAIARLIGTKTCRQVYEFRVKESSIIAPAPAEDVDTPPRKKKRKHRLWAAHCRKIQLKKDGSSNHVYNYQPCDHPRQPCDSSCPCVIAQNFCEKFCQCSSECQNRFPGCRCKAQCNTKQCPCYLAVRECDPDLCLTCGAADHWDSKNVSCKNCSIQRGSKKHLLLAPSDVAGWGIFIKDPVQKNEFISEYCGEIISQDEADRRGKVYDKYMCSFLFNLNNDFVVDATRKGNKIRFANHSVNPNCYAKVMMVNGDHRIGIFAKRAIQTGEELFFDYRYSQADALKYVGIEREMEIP

The target in assay [1] is HDAC1 (human (endogenous in SW480)) (UniProt Q13547).
In assay [2] the target is HDAC2 (human (endogenous in SW480)) (UniProt Q92769).
Assay [3] has as its target Snail (human (endogenous in SW480)) (UniProt O95863).
In assay [4] the target is enhancer of zeste homolog 2 (EZH2) (human (endogenous in SW480)) (UniProt Q15910).

No constants are given. Whether binding was seen depends on the method and setting. In cells and extracts the contact can be indirect. Some entries that bind do so weakly or less than the wild type.

Regarding Snail (from UniProt O95863 1-264), the binding entry in assay [1] and in assay [2] was “binds” throughout.
HDAC2 (from UniProt Q92769 1-488): the binding entry in assay [3] and in assay [4] was “binds” each time.
HDAC1 (from UniProt Q13547 1-482): in assay [3], the binding result was “binds”.

The values are drawn from paper PMC4695000.
